Measured values as given in article PMC8062543 (Scientific Reports, 2021).
No constants are given. Whether binding was seen depends on the method and setting. Tags and fused reporters may be left off the sequences shown.

Molecular target: gluconate kinase (GntK) from Methylotuvimicrobium alcaliphilum 20Z (Methylotuvimicrobium alcaliphilum 20Z) (UniProt G4T089)
Assay: SEC; gel filtration on XK 16/100 Superdex 200, 0.02 M Tris-HCl pH 7.0 with 0.5 M NaCl, calibrated with protein markers; GDHs with the cut-off His-tag; both purified

B1: gluconate kinase (GntK) from Methylotuvimicrobium alcaliphilum 20Z (enzyme, UniProt G4T089 1-181)
chain: MNSSNDSRHRAARVVIIGGVSGCGKSTVGRALAEYLGWSFIEGDAFHSEANIEKMRRGEALDDNDRRPWLESLHNEIIYHLDRGISAVMACSALKASYREILCGDEVNVSFVFLSCSRESLHRRLTTRQGHFLGAELLDSQLAAFESSHDILLIDSEQAVETLVESIADWLAYSGSECDET
With B1 the binding was “no binding”.
